Results on 37 targets are retold here after the supplement of paper PMC12067093, “Discovery and optimisation of a covalent ligand for TRIM25 and its application to targeted protein ubiquitination” (Chemical Science, 2025).

The chains behind the UniProt entries cited, without tags or fusion partners. Where a name states a change or a piece, a line headed by the entry shows the natural chain unless it says otherwise.
UniProt O00186: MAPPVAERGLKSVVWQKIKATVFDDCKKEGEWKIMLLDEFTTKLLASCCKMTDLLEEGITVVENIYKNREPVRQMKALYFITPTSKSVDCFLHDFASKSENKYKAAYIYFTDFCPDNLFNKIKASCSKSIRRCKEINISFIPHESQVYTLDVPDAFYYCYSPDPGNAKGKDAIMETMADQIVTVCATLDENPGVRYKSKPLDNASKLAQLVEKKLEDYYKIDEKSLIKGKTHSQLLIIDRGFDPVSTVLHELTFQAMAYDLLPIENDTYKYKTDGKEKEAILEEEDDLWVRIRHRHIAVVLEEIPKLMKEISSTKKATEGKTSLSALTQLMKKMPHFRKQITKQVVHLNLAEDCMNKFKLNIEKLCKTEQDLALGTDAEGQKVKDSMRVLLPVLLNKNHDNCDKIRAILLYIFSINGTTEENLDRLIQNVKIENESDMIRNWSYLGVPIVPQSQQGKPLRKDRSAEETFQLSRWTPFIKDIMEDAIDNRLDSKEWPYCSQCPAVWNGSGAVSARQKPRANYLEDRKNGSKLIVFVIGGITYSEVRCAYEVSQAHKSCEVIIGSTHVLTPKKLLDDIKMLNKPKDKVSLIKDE
UniProt P42226: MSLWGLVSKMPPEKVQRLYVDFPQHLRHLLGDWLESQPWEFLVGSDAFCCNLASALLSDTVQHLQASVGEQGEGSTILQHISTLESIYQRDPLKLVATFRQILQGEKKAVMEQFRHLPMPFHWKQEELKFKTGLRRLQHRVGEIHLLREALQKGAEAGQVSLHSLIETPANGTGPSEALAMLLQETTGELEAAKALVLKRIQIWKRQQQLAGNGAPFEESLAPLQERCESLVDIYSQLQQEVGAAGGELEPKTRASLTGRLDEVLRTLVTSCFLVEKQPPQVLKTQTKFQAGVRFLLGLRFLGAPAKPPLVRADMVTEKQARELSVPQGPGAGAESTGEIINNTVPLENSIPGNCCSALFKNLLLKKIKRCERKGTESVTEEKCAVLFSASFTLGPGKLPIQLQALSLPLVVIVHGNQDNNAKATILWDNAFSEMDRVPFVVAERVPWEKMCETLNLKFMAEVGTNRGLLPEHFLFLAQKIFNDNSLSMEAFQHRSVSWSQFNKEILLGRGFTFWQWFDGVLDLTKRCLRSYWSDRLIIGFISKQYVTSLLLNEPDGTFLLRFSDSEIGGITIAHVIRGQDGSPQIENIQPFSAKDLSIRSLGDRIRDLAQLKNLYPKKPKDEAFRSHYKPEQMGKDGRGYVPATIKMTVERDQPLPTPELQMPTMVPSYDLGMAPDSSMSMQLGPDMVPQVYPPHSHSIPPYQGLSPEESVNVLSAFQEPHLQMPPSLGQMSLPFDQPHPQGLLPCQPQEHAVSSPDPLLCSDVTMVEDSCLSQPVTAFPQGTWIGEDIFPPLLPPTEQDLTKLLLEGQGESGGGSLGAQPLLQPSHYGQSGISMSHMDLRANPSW
UniProt P31948, whole entry, looked up: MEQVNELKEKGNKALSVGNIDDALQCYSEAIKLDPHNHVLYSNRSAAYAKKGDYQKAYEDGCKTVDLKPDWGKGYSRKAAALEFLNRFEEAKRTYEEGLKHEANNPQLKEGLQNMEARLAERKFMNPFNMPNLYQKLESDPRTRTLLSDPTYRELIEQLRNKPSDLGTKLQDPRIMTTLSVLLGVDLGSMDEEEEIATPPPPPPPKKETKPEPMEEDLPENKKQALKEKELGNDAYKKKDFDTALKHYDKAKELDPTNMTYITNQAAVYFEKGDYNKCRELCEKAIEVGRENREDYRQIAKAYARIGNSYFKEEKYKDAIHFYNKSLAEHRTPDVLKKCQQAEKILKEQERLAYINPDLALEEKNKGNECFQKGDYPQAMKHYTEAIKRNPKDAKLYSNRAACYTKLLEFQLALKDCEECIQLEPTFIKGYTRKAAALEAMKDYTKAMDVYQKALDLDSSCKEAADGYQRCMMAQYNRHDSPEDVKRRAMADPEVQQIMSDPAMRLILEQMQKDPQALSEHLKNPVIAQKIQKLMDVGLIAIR
UniProt Q9Y5B9, whole entry, looked up: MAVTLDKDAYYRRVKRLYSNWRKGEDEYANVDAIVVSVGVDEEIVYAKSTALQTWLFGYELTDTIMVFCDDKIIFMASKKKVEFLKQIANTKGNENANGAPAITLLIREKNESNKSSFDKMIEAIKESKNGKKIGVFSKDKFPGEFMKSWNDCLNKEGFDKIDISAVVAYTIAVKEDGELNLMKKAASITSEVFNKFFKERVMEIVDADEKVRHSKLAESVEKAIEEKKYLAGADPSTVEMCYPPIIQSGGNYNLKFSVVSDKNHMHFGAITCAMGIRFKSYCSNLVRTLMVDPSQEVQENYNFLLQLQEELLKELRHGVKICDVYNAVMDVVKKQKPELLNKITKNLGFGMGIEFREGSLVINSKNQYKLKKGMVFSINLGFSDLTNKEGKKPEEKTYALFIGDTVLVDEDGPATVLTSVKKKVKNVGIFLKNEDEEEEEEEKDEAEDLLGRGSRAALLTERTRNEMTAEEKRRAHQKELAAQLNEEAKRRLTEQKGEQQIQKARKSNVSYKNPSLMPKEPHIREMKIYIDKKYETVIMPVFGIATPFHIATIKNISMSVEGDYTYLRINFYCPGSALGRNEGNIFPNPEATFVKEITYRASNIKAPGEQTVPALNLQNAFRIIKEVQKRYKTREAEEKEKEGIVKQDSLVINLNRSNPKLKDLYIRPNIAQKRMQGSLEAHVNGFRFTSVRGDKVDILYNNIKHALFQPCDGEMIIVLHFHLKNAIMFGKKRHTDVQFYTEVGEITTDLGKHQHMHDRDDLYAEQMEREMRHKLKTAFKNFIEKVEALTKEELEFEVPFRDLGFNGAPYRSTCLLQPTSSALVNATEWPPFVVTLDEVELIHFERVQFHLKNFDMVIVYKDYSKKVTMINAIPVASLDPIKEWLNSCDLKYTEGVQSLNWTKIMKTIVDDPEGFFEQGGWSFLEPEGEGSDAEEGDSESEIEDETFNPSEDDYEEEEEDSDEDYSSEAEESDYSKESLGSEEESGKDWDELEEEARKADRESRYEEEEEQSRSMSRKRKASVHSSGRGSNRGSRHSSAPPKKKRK
UniProt Q5T5C0: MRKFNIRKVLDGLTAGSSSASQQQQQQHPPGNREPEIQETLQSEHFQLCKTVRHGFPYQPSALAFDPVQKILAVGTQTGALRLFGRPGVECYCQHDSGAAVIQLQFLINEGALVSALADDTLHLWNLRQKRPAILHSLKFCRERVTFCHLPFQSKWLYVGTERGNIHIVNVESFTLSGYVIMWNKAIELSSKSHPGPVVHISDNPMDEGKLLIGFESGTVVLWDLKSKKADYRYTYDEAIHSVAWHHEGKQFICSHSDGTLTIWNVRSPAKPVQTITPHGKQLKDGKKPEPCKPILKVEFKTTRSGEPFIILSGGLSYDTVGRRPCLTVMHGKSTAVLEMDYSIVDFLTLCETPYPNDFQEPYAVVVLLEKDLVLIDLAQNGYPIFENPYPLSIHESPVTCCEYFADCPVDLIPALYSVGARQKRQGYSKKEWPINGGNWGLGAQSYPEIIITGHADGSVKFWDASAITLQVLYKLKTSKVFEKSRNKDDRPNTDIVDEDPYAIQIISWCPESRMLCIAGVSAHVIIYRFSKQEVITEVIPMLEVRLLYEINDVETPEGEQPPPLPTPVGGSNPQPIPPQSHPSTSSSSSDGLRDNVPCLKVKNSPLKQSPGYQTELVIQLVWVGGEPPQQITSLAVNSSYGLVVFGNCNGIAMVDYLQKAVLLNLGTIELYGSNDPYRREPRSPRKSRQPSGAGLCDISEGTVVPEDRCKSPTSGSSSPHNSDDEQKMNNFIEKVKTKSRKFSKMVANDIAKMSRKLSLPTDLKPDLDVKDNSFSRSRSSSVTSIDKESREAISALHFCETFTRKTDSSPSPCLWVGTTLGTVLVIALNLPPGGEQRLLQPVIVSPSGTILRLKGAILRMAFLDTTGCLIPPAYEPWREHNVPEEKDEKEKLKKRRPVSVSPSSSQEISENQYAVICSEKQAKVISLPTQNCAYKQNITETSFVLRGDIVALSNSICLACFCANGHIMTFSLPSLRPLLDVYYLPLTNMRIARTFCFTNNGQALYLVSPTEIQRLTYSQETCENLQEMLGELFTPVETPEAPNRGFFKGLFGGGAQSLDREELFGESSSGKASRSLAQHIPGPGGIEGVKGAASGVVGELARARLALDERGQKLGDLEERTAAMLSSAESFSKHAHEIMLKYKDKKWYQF
UniProt Q8IYB8: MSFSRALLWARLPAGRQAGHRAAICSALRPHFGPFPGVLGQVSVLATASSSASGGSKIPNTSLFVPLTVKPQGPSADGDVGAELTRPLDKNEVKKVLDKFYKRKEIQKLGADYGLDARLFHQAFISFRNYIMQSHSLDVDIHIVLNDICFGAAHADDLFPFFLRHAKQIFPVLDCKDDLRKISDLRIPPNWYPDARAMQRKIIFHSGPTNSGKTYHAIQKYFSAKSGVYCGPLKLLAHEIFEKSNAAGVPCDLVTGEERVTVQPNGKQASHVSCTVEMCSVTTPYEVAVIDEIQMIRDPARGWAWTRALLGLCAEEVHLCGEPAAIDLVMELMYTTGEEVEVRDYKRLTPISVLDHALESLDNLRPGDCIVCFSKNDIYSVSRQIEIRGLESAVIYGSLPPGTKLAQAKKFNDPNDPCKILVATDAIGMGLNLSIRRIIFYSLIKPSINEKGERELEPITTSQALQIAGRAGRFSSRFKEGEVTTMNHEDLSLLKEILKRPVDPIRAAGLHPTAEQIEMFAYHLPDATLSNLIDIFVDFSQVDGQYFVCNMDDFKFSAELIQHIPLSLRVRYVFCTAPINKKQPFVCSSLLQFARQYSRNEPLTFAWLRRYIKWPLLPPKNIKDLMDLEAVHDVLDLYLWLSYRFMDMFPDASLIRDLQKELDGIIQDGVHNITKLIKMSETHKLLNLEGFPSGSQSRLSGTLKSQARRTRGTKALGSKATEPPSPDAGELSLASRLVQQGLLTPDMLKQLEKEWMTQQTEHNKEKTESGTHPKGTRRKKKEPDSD
UniProt O95630, whole entry, looked up: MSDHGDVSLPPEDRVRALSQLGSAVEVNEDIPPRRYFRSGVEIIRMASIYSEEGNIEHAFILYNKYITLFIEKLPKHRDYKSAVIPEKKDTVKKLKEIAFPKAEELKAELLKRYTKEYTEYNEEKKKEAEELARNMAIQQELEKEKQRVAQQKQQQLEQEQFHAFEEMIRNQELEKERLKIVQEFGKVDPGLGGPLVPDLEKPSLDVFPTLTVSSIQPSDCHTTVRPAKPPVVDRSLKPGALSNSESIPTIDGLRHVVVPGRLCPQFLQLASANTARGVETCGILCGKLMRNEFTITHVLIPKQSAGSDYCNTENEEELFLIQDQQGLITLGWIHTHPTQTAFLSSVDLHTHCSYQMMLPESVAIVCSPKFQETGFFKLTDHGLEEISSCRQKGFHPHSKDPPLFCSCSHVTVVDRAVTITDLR
UniProt Q8TE77: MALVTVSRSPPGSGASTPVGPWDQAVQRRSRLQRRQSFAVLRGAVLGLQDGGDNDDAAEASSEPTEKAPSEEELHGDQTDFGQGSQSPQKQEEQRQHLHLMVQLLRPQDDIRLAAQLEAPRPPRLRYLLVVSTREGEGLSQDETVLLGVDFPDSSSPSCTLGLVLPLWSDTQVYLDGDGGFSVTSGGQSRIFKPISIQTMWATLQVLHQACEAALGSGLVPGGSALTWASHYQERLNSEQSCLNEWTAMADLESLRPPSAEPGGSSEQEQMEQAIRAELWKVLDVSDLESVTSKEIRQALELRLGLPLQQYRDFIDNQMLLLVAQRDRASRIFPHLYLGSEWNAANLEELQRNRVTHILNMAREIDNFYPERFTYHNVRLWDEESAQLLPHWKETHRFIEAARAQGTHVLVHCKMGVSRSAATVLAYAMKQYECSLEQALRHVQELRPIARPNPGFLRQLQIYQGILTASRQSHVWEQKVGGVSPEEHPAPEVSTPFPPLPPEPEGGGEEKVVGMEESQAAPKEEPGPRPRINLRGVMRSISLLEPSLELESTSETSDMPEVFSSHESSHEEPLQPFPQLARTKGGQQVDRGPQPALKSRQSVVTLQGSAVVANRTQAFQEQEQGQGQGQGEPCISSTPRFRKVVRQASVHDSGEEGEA
UniProt Q9NSY2, whole entry: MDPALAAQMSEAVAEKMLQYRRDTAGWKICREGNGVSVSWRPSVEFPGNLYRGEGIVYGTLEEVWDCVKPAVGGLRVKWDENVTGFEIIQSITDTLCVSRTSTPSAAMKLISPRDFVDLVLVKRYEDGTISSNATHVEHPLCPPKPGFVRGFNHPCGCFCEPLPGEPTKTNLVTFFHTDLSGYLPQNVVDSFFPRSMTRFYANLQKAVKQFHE
UniProt Q9BYN0: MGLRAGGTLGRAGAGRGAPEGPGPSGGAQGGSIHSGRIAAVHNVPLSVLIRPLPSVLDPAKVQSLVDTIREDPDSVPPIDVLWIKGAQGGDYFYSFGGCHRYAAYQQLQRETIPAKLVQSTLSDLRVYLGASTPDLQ

The other results are listed elsewhere or left out.
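Note: competitive chemoproteomic profiling in live THP-1 cells with an iodoacetamide desthiobiotin (IA-DTB) probe, comparing probe-labelled peptide intensities in compound-treated cells against DMSO-treated controls.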

Compound in the assay: CC1Cc2ccccc2N1C(=O)C1CCCN(C1)C(=O)CCl (mixture of isomers) [TRIM25 ligand 11 (diastereomer mixture)]
Description: probe-labelled cysteine peptide fold change vs DMSO (competition) (log2 fold change); higher = less target engagement (more negative = stronger competition). To be noted: 10 µM; THP-1; incubation time: 4 h.
Turning to “STXBP3_O00186_546_CAYEVSQAHK (UniProt O00186)”, the “probe-labelled cysteine peptide fold change” value came to 0.118.
With “SSRP1_Q08945_343_ITVPGNFQGHSGAQCITCSYK (UniProt Q08945)”, the “probe-labelled cysteine peptide fold change” value came to 0.028.
Take “STAT6_P42226_228_CESLVDIYSQLQQEVGAAGGELEPK (UniProt P42226)”: the “probe-labelled cysteine peptide fold change” value worked out at 0.0161.
Regarding “SURF2_Q15527_93_CPEHVLR (UniProt Q15527)”, the “probe-labelled cysteine peptide fold change” value stood at 0.0339.
With “STIP1_P31948_461_ALDLDSSCK (UniProt P31948)” the figure was -0.0542; with “SUPT16H_Q9Y5B9_153_SWNDCLNK (UniProt Q9Y5B9)”, -0.00674.
As to “STXBP5_Q5T5C0_697_SRQPSGAGLCDISEGTVVPEDR (UniProt Q5T5C0)”, the “probe-labelled cysteine peptide fold change” value is -0.312.
With “SUPV3L1_Q8IYB8_251_SNAAGVPCDLVTGEER (UniProt Q8IYB8)” the figure was 0.125.
Consider “SRPK2_P78362_223_IIHTDIKPENILMCVDDAYVR (UniProt P78362)”, for which the “probe-labelled cysteine peptide fold change” value was found to be 0.055.
As for “SRPRB_Q9Y5M8_73_AVLLVGLCDSGK (UniProt Q9Y5M8)”, the “probe-labelled cysteine peptide fold change” value was -0.133.
“STXBP3_O00186_48_LLASCCK (UniProt O00186)”: the “probe-labelled cysteine peptide fold change” value came to 0.0279.
On to “SUPV3L1_Q8IYB8_175_QIFPVLDCKDDLRK (UniProt Q8IYB8)”, for which the “probe-labelled cysteine peptide fold change” value is -0.295.
Regarding “STK32C_Q86UX6_379_LHCDPTFELEEMILESRPLHK (UniProt Q86UX6)”, the “probe-labelled cysteine peptide fold change” value was 0.0194.
With “SSX2IP_Q9Y2D8_529_KPHSVSNGSPVCMSK (UniProt Q9Y2D8)” the figure was -0.146; with “STXBP2_Q15833_45_ILSSCCK (UniProt Q15833)”, -0.0852; with “STT3B_Q8TCJ2_40_HGHHGPGAQCAHK (UniProt Q8TCJ2)”, -0.144.
Turning to “SUPT4H1_P63272_16_ACLLCSLVK (UniProt P63272)”, the “probe-labelled cysteine peptide fold change” value is 0.0915.
Turning to “SRSF9_Q13242_80_NGYDYGQCR (UniProt Q13242)”, the “probe-labelled cysteine peptide fold change” value is -0.212.
As to “SUMF1_Q8NBK3_365_CAADRLPTMD (UniProt Q8NBK3)”, the “probe-labelled cysteine peptide fold change” value is -0.196.
Regarding “SUPT5H_O00267_740_VELHSTCQTISVDR (UniProt O00267)”, the “probe-labelled cysteine peptide fold change” value was -0.00805.
Consider “STAMBP_O95630_282_GVETCGILCGK (UniProt O95630)”, for which the “probe-labelled cysteine peptide fold change” value came out at 0.141.
Take “STXBP3_O00186_114_AAYIYFTDFCPDNLFNK (UniProt O00186)”: the “probe-labelled cysteine peptide fold change” value was 0.0302.
For “SUZ12_Q15022_531_TPITHILVCR (UniProt Q15022)”, the “probe-labelled cysteine peptide fold change” value is -0.311.
For the target “STAG1_Q8WVM7_531_QESALIELMVCTIR (UniProt Q8WVM7)”, the “probe-labelled cysteine peptide fold change” value is 0.213.
As to “STK16_O75716_174_DLKPTNILLGDEGQPVLMDLGSMNQACIHVEGSR (UniProt O75716)”, the “probe-labelled cysteine peptide fold change” value is 0.00578.
Consider “SSH3_Q8TE77_413_AQGTHVLVHCK (UniProt Q8TE77)”, for which the “probe-labelled cysteine peptide fold change” value is 0.0573.
For the target “STEAP3_Q658P3_140_ESNAEYLASLFPTCTVVK (UniProt Q658P3)”, the “probe-labelled cysteine peptide fold change” value was 0.0192.
Turning to “STAMBP_O95630_390_LTDHGLEEISSCR (UniProt O95630)”, the “probe-labelled cysteine peptide fold change” value is 0.19.
With “STK11IP_Q8N1F8_538_EVEAELCRPLLVCPLEGPEGVR (UniProt Q8N1F8)” the figure was 0.113.
With “STK24_Q9Y6E0_394_SQACGGNLGSIEELR (UniProt Q9Y6E0)” the figure was -0.0894; with “STRN3_Q13033_604_NQLLSCSADGTVR (UniProt Q13033)”, 0.125; with “STT3A_P46977_637_VDREGSPVLLNCLMYK (UniProt P46977)”, 0.137.
With “STAT1_P42224_324_QPCMPTHPQRPLVLK (UniProt P42224)” the figure was 0.09.
As to “SRPRA_P08240_363_NVAADIAVQLCESVANKLEGK (UniProt P08240)”, the “probe-labelled cysteine peptide fold change” value is -0.306.
As to “STARD5_Q9NSY2_67_GEGIVYGTLEEVWDCVK (UniProt Q9NSY2)”, the “probe-labelled cysteine peptide fold change” value was -0.0123.
Take “STK39_Q9UEW8_525_LASGCDGSEIPDEVK (UniProt Q9UEW8)”: the “probe-labelled cysteine peptide fold change” value worked out at 0.141.
Turning to “SRXN1_Q9BYN0_99_GAQGGDYFYSFGGCHR (UniProt Q9BYN0)”, the “probe-labelled cysteine peptide fold change” value worked out at 0.287.
